Drawing on PubChem BioAssay AID2685 (National Center for Advancing Translational Sciences (NCATS), 2010), this text covers cell number change and AC50 for 59 compounds.

The nature of the assay: qHTS Assay for Lipid Storage Modulators in Drosophila S3 Cells.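 On cell number change: cells counted by Cell Tracker Red CMTPX staining in the red channel.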 As to conditions: BODIPY lipid droplet fluorescence, 18-24 h; for cell number change: measured here: cell count max response, cells fed with added oleic acid. The method, boiled down:
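Drosophila S3 cells got compounds at several concentrations plus oleic acid (400 uM solution). Laser-scanning cytometry with 488 nm excitation read lipid droplets at 500-530 nm and cells at 575-640 nm. Percent activity was relative to 20 uM Triacsin C.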

Where [1] appears, read: measured here: cell number channel AC50, cells fed with added oleic acid.
Setting [2] is: measured here: lipid fluorescence (Fed channel) AC50, cells fed with added oleic acid.

This is one part of the list. These are further read-outs of the screen, such as a control signal, another cell line or another target. No call is given for them. Most of these compounds were active or inconclusive in the main read-out, so they are no random draw. Potencies come from curve fits of mixed quality, noted in brackets.

Take `Cn1nnnc1SCc1nc2ccccc2s1`: the cell number change was determined as 0.262%.
Consider `COc1cc(CCC(=O)OCC(=O)NCc2ccc(Cl)cc2)cc(OC)c1OC`, for which the cell number change turned out to be 126%.
Turning to `O=C(O)CCC(=O)NCc1ccc(C(=O)O)cc1`, the cell number change was -31.4%. Further, under setting [1], the AC50 is 0.058 µM [falling, full curve, poor fit]. In addition, the AC50 under setting [2] is 20.6 µM [falling, partial curve].
Take `Cc1ccc(/C=C2\CCCC3=C2NC(=S)NC3c2ccc(C)cc2)cc1` (stereo unspecified): the cell number change turned out to be 6.33%. For the same compound, under setting [2], the AC50 was 0.731 µM [falling, full curve, poor fit].
For `Cc1ccc(C)c(OCCC(=O)OCC(=O)NC(=O)NCc2ccccc2)c1`, the cell number change is 7.63%.
In the case of `Cc1c(C(=O)NCCCN2CCCC2=O)oc2ccccc12`, the cell number change worked out at 1.56%.
On to `CC(C)N1C(=O)C(=O)N(CC(=O)N(C)c2ccccc2)C1=O`, for which the cell number change was determined as 20.8%. Moreover, the AC50 under setting [2] was 1.84 µM [rising, partial curve, poor fit].
As for `Cc1cc(C)c(-c2cc(NC(=O)COC(=O)c3ccc(CO)cc3)n(-c3ccccc3)n2)cc1C`, the cell number change was -8.83%. The AC50 under setting [2] was 1.64 µM [rising, partial curve].
With `O=C(O)/C=C/c1cnn(-c2ccccc2)c1`, the cell number change is -12.2%. Further, the AC50 under setting [2] is 0.0651 µM [falling, full curve].
With `CCOCCCNC(=O)C(c1ccc(Cl)cc1)N(Cc1cccs1)C(=O)c1ccccn1` (stereo unspecified), the cell number change is -16.2%. The AC50 under setting [2] is 18.4 µM [falling, single point].
Turning to `Cc1ccc(-c2nnc3ccc(SCC(=O)N4CCc5ccccc54)nn23)cc1`, the AC50 under setting [2] is 0.291 µM [rising, partial curve, poor fit].
Regarding `COc1cccc(-n2c(Cc3cc(=O)[nH]c(=O)[nH]3)nnc2SCC(=O)NC2CCCCC2)c1`, the cell number change was found to be 40.2%. Under setting [1], the AC50 is 16.4 µM [rising, partial curve]. In addition, the half-maximal activity concentration (AC50) under setting [2] is 29.1 µM [rising, single point].
Regarding `Cc1ccc(CNC(=O)CC(C)S(=O)(=O)c2ccc3c(c2)NC(=O)C(C)S3)cc1` (stereo unspecified), the cell number change was -21.9%. In addition, the AC50 under setting [2] was 29.1 µM [falling, single point].
For `O=C(Cc1ccccc1)Nc1ccccc1C(=O)NCC1CCCO1` (stereo unspecified), the cell number change is -16.2%.
Consider `CCn1c(=O)c([N+](=O)[O-])c(NCCc2ccc(OC)c(OC)c2)c2ccccc21`, for which the AC50 under setting [2] is 13 µM [rising, partial curve, poor fit].
With `COc1ccc(NC(=O)Nc2ccccc2C(N)=O)cc1OC`, the cell number change is 1.66%. Moreover, the AC50 under setting [2] was 0.58 µM [rising, single point].
On to `CSc1ccc(COC(=O)CCS(=O)(=O)c2ccc(C)cc2)cc1`, for which the AC50 under setting [1] is 6.51 µM [falling, single point].
Regarding `O=C(/C=C/c1c(Cl)cccc1Cl)Nc1ccncc1`, the cell number change turned out to be 3.47%. Moreover, under setting [1], the AC50 is 0.651 µM [falling, single point]. The AC50 under setting [2] is 0.651 µM [falling, single point].
For the compound `O=C1/C(=C\c2ccccc2Cl)SC(=S)N1CCC(=O)N1CCCc2ccccc21`, the cell number change was found to be 0.704%. For the same compound, under setting [2], the AC50 was 0.82 µM [rising, full curve, poor fit].
As for `CCC(C(=O)Nc1ccncc1)c1ccccc1` (stereo unspecified), the cell number change is -13.9%. Besides, under setting [2], the AC50 is 29.1 µM [falling, single point].
Regarding `COc1ccc(NC(=O)C2C3C=CC4(O3)C2C(=O)N(CCN2CCCCC2)C4C(=O)NC2CCCCC2)cc1` (stereo unspecified), the cell number change is 2.86%. Also, the AC50 under setting [2] is 29.1 µM [rising, partial curve].
For `CC(C)c1nnc(NC(=O)CSc2ncn[nH]2)s1`, the cell number change was found to be 9.09%. For the same compound, the AC50 under setting [1] was 0.103 µM [rising, full curve, poor fit].
As for `Cc1ccccc1S(=O)(=O)Cc1ccc(C(=O)NC2CCC(C)CC2)o1` (stereo unspecified), under setting [2], the AC50 was 1.84 µM [falling, partial curve].
For the compound `O=C(Cc1ccc(Cl)cc1Cl)Nc1cccc(S(=O)(=O)Nc2ccccc2F)c1`, the cell number change was -35.3%. Besides, the AC50 under setting [1] is 1.16 µM [falling, full curve, poor fit].
Consider `C/C(=N\NC(=O)Cc1ccc(Cl)cc1)c1cccc(NC(=O)c2cccnc2)c1`, for which the cell number change is -23.8%. The AC50 under setting [1] is 0.13 µM [falling, full curve, poor fit].
Turning to `Cc1ccc2nc(-c3ccc(SCC(=O)Nc4nc(C)cs4)nc3)[nH]c2c1`, the cell number change was -45.1%. The AC50 under setting [1] was 20.6 µM [falling, partial curve, poor fit]. Besides, the AC50 under setting [2] was 18.4 µM [falling, partial curve].
`Cc1ccc(/C=C/C(=O)Nc2cc(S(=O)(=O)N3CCOCC3)ccc2N2CCOCC2)cc1`: the cell number change was 24.6%. Further, the half-maximal activity concentration (AC50) under setting [1] is 1.84 µM [rising, full curve, poor fit]. Under setting [2], the concentration at half-maximal activity (AC50) was 2.31 µM [rising, full curve, poor fit].
With `N#Cc1cccc(C(=O)OCC(=O)NC(=O)NC2CCCCC2)c1`, the cell number change came to 12%.
With `CCOC(=O)c1ccccc1NS(=O)(=O)c1ccccc1F`, the cell number change stood at 8.33%. In addition, the AC50 under setting [1] is 6.51 µM [rising, single point]. Under setting [2], the AC50 was 3.66 µM [rising, partial curve].
Take `Cc1cccc(NC(=O)CC2NCCNC2=O)c1` (stereo unspecified): the AC50 under setting [2] was 0.164 µM [falling, full curve, poor fit].
For the compound `CCc1ccc(-n2c(C)cc(/C=N/NC(=O)c3ccncc3)c2C)cc1`, the cell number change stood at 26.4%.
Still for that read-out and setting: in the case of `COCCNC(=O)C(c1ccc(C)o1)N(CC1CCCO1)C(=O)Cn1nnc2ccccc21` (stereo unspecified) it was 15.1%.
On to `Cc1ccc(CNC(=O)c2sccc2-n2cccc2)cc1`, for which the cell number change turned out to be 30.2%. For the same compound, under setting [1], the AC50 was 0.206 µM [rising, full curve, poor fit].
As to `O=C(COC(=O)Cc1c(F)cccc1Cl)Nc1nnc(-c2ccccc2)o1`, the cell number change is 17.1%. Under setting [1], the AC50 is 0.231 µM [rising, full curve, poor fit].
`CN(c1ccccc1)S(=O)(=O)c1cccc(NC(=O)c2cc3ccccc3oc2=O)c1`: the cell number change came out at 11.6%.
On to `O=c1cc(CS(=O)(=O)c2ccccc2)nc(-c2ccncc2)[nH]1`, for which the cell number change was -39.1%. Also, under setting [1], the AC50 was 6.51 µM [falling, full curve]. Also, under setting [2], the AC50 was 5.17 µM [falling, full curve].
On to `O=C(O)/C=C/c1ccc(S(=O)(=O)NCc2ccco2)cc1`, for which the cell number change was -13.9%.
As to `O=c1c(-c2ccccc2)coc2c(CN3CCOCC3)c(O)ccc12`, the cell number change was -63.8%. The AC50 under setting [1] is 32.6 µM [falling, single point].
As for `Cc1ccc2oc(-c3cccc(NC(=O)Cc4cccs4)c3)nc2c1`, the cell number change was -45.6%. In addition, the AC50 under setting [1] is 25.9 µM [falling, partial curve]. Besides, the AC50 under setting [2] was 18.4 µM [falling, partial curve].
`O=C(Nc1cc(S(=O)(=O)N2CCOCC2)ccc1N1CCOCC1)c1ccccc1F`: the cell number change amounted to 21.1%. Under setting [1], the AC50 is 0.651 µM [rising, full curve, poor fit].
On to `O=C(Nc1cccc(S(=O)(=O)N2CCCC2)c1)c1cc(-c2ccccn2)nc2ccccc12`, for which the AC50 under setting [1] was 3.66 µM [rising, single point].
In the case of `O=C1C2C3C=CC(C3)C2C(=O)N1c1ccc(N2CCN(c3ccccn3)CC2)c([N+](=O)[O-])c1` (stereo unspecified), the cell number change was -52.8%. Besides, the AC50 under setting [1] is 23.1 µM [falling, single point]. Further, under setting [2], the AC50 is 29.1 µM [falling, partial curve, poor fit].
`Cc1noc(C)c1COc1ccccc1C(=O)N1CCN(c2cccc(Cl)c2)CC1`: the cell number change was -20.5%. Besides, the AC50 under setting [1] is 0.651 µM [falling, partial curve, poor fit]. Moreover, the AC50 under setting [2] was 10.3 µM [falling, partial curve].
On to `C/C(=N\NC(=O)c1ccc(OC2CCCC2)cc1)c1ccc(C)s1`, for which the AC50 under setting [1] was 0.259 µM [rising, partial curve, poor fit].
As to `O=C(N/N=C/c1ccc2c(c1)OCO2)c1cc(-c2ccccc2Cl)nc2ccccc12`, the cell number change came to 13.7%. The AC50 under setting [2] was 0.58 µM [rising, full curve].
With `CCOc1ccc(C(=O)c2ccc(OCC)c(N)c2)cc1N`, the cell number change is -9.92%.
Regarding `Cc1ccc(S(=O)(=O)CC(=O)Nc2nnc(C(C)C)s2)cc1`, the cell number change amounted to 29%. Also, the concentration at half-maximal activity (AC50) under setting [2] is 3.66 µM [rising, full curve].
With `CCN(Cc1ccc(OC)c(F)c1)C(=O)/C=C/c1ccc(S(=O)(=O)N2CCOCC2)cc1`, the cell number change is -35.6%. The half-maximal activity concentration (AC50) under setting [1] was 0.651 µM [falling, partial curve]. Also, the AC50 under setting [2] was 0.58 µM [falling, full curve, poor fit].
Consider `O=C(Cn1cnc([N+](=O)[O-])c1)c1ccc(Cl)cc1`, for which the AC50 under setting [2] was 0.00517 µM [rising, full curve, poor fit].
Consider `O=C(CN1CCN(C(=O)c2cccc(S(=O)(=O)N3CCCC3)c2)CC1)Nc1ccccc1Cl`, for which the cell number change is -58.1%. Further, under setting [1], the half-maximal activity concentration (AC50) was 23.1 µM [falling, single point]. For the same compound, under setting [2], the AC50 is 7.31 µM [falling, partial curve, poor fit].
With `CN(C(=O)COC(=O)c1ccc(Br)c([N+](=O)[O-])c1)c1c(N)n(Cc2ccccc2)c(=O)[nH]c1=O`, the cell number change is -16.7%. In addition, the AC50 under setting [2] was 5.8 µM [falling, full curve].
On to `CC(C)=C(NC(=O)c1ccccc1)C(=O)NCc1ccccc1`, for which the cell number change amounted to 33.6%. Also, the AC50 under setting [1] was 6.51 µM [rising, full curve, poor fit]. For the same compound, the AC50 under setting [2] was 6.51 µM [rising, full curve, poor fit].
In the case of `CCCNS(=O)(=O)c1ccc(-n2cnnn2)c(OC)c1`, the cell number change was -0.289%. Also, the AC50 under setting [2] is 5.8 µM [falling, full curve, poor fit].
As to `COCCCn1c(SCC(=O)OC2CCCCC2)nnc1-c1cccs1`, the cell number change turned out to be 3.44%. Under setting [2], the concentration at half-maximal activity (AC50) is 0.00461 µM [falling, full curve, poor fit].
Regarding `CCOc1ccc(NC(=O)CCC(=O)c2ccc(Br)cc2)cc1`, the cell number change turned out to be 12.1%. Moreover, under setting [2], the AC50 is 29.1 µM [rising, single point].
For `Cc1nc(N)sc1N=Nc1ccc(Br)cc1`, the AC50 under setting [2] is 0.259 µM [rising, partial curve, poor fit].
In the case of `O=C(Nc1ccccc1C(F)(F)F)c1cc(-c2ccco2)on1`, the cell number change was 20%. Moreover, the AC50 under setting [2] is 0.116 µM [rising, single point].
Take `O=C(O)CSc1nnc(-c2ccncc2)n1CCc1ccccc1`: the cell number change was 4.37%. The concentration at half-maximal activity (AC50) under setting [1] was 0.82 µM [falling, full curve].
On to `CCn1ccc(-c2ccccc2)c(C#N)c1=O`, for which the cell number change is -17.1%. Under setting [2], the AC50 is 6.51 µM [falling, single point].
